Laboratory results as given in patent US20220153848A1.
No constants are given. Whether binding was seen depends on the method and setting. Some results given as binding are weak or reduced against the parent protein; the word gives no strength.

By UniProt entry, the sequences of proteins in these tests, tags left out. Where a name states a change or a piece, a line headed by the entry shows the natural chain unless it says otherwise.
UniProt P08581: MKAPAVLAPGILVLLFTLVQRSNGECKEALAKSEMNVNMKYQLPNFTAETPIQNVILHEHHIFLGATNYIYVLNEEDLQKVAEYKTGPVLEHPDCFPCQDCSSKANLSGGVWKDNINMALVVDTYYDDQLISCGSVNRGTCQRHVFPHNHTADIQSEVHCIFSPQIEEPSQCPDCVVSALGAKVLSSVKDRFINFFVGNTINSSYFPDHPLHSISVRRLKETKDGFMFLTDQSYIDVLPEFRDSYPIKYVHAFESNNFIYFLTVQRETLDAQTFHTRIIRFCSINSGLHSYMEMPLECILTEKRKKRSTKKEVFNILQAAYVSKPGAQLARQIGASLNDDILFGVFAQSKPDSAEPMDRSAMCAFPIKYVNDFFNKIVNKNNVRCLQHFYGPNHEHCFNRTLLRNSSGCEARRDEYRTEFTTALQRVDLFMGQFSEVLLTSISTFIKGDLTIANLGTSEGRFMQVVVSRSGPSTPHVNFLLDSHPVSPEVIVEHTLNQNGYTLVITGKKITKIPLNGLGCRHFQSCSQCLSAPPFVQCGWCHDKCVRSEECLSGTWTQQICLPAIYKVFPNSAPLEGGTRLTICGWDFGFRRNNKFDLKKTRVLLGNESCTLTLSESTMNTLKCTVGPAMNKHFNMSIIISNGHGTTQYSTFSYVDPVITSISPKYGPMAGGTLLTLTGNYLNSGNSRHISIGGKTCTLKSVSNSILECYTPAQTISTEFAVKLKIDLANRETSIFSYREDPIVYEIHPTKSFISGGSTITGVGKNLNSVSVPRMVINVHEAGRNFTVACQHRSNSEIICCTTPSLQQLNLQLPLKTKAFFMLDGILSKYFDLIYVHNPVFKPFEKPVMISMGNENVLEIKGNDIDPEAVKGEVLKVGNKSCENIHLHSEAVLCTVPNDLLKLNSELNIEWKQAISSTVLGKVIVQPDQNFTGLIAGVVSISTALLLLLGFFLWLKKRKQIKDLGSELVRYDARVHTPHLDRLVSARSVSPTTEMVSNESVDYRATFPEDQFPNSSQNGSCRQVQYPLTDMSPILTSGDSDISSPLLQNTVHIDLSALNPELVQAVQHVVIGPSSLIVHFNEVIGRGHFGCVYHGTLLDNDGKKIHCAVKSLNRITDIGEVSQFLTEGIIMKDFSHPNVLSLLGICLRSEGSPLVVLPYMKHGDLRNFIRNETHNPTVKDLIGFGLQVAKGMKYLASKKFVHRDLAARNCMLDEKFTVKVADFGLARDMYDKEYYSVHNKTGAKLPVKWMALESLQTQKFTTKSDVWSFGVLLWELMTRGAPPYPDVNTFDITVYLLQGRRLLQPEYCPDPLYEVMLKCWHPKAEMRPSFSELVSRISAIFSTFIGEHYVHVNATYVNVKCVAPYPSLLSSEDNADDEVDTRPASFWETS

Tests used:
[1] = biological target: c-MET on the surface of HT29 and HCT-116 human colon cancer cells (human) (UniProt P08581); test: flow cytometry on HT29 and HCT-116 cells, fold MFI over secondary-antibody only control
[2] = biological target: c-MET on the surface of HT29 and HCT-116 human colon cancer cells (human) (UniProt P08581); test: flow cytometry on HT29 cells
[3] = biological target: c-MET on the surface of HT29 and HCT-116 human colon cancer cells (human) (UniProt P08581); test: flow cytometry on HCT-116 cells

Measured: binding

B1: anti-c-MET monoclonal antibody ABT-700 (parental monoclonal antibody of A49MI-Duobody-TriNKET-ABT-700) (antibody, human IgG1, kappa, V domains shown)
VH: QVQLVQSGAEVKKPGASVKVSCKASGYIFTAYTMHWVRQAPGQGLEWMGWIKPNNGLANYAQKFQGRVTMTRDTSISTAYMELSRLRSDDTAVYYCARSEITTEFDYWGQGTLVTVSS
VL: DIVMTQSPDSLAVSLGERATINCKSSESVDSYANSFLHWYQQKPGQPPKLLIYRASTRESGVPDRFSGSGSGTDFTLTISSLQAEDVAVYYCQQSKEDPLTFGGGTKVEIKR
binds: all assays above
